This is an account of results in paper PMC7819943, “Rice protein-binding microarrays: a tool to detect cis-acting elements near promoter regions in rice”.

Some of the results follow.

In the assay the target is T1, OsSMF1 (Oryza sativa, UniProt Q6ZLB0 1-436).
T1 sequence: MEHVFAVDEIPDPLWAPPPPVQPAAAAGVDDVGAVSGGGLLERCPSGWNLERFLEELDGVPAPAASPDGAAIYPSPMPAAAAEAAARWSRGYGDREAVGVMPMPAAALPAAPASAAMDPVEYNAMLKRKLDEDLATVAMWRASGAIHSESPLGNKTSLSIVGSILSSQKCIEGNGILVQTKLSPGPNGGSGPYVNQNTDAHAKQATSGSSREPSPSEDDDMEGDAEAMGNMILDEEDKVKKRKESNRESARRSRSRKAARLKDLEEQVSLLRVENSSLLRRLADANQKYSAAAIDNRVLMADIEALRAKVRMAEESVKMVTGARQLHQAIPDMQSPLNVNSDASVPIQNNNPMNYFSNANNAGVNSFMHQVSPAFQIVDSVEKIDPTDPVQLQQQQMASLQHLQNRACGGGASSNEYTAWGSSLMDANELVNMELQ
The assay can be described thus: protein-binding microarray (RPBM); PBS, 2% BSA, 51.3 ng/ul salmon testes DNA, 50 uM zinc acetate, 200 nM TF, 25 C, 1 h; high values mean tight binding. Conditions: protein: recombinant; tags: N-terminal polyhistidine and DsRed monomer fusion (pET32a); chain copies: 2; label: CyDye5-dUTP incorporated in the synthesized complementary strand; 3' TTTTT single-stranded linker to array surface; dsDNA, one strand shown. The gist of the method: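 A custom Agilent array was converted to double-stranded form by primer extension with Cy5-dUTP and blocked with 2% BSA. Protein at 200 nM in PBS with 2% BSA, salmon testes DNA and 50 µM zinc acetate was applied for 1 h at 25 °C, followed by washing. The proteins were polyhistidine–DsRed N-terminal fusions of transcription factors, expressed in E. coli BL21-CodonPlus and Ni–NTA-purified. The binding signal is per-feature fluorescence intensity (arbitrary units) from an Axon 4000B scanner.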
Take “ACACACTAACACACCTTACTACTACAAGCTGCAGCTGGCACGGAGTCACCTAGTGCAG”: the binding signal was 3510 fluorescence intensity (a.u.).
The result for “CCTGAGATGGAGGCCGATCCTGTCATCATCGACACCGATGCGGAGTCACCTAGTGCAG” reads 4230 fluorescence intensity (a.u.).
The result for “TGACCTAGCTAGCTACCTTTTCCCTCTTCCATCACATATACGGAGTCACCTAGTGCAG” reads 3800 fluorescence intensity (a.u.); that for “AACCTTCGTGATGTGGACAGATCATGGGCGAGTACGGTCGCGGAGTCACCTAGTGCAG”, 6120 fluorescence intensity (a.u.); that for “AATATAAGTGAATCTTCTCCGATGATGACGTATGAGGTGACGGAGTCACCTAGTGCAG”, 7220 fluorescence intensity (a.u.).
Next, “ATCAATTTATCACCCGCTGACTCATCTTTATTGTATCTGCCGGAGTCACCTAGTGCAG”: 24300 fluorescence intensity (a.u.); “CCAACCCTGACAGACAAACAAGCGGAGTATGAGCCGTCGGCGGAGTCACCTAGTGCAG”: 4110 fluorescence intensity (a.u.); “CCCCGGCCGCCGCACGTGGCCACAGCTCAGCACACGTACGCGGAGTCACCTAGTGCAG”: 8880 fluorescence intensity (a.u.).
“GAAACCAATCCACACAAACAACCACCTGATAGCTAAGCTACGGAGTCACCTAGTGCAG”: the binding signal was 21300 fluorescence intensity (a.u.).
The result for “GATAATTAACAGTACATCTTGATCCGGACTGGCCGGCCTTCGGAGTCACCTAGTGCAG” reads 4560 fluorescence intensity (a.u.); that for “AGGTGTCTTCTCAAACATCACGCTGGAATCCTTGGTTGGGCGGAGTCACCTAGTGCAG”, 3270 fluorescence intensity (a.u.).
The result for “GACAATGCAATCTTACTCCTACTTGCTGGTTATGAGACATCGGAGTCACCTAGTGCAG” reads 3660 fluorescence intensity (a.u.).
For “ACCTCGCACACGTGGCGCCAACGTGGCAATCTAACCAGCACGGAGTCACCTAGTGCAG”, the binding signal was 22700 fluorescence intensity (a.u.).
The result for “TCTTTCTCTTTCCTCATTTATTCACTTGCCACATCATTTTCGGAGTCACCTAGTGCAG” reads 6190 fluorescence intensity (a.u.).
Take “CCTCTCAGTCTCAACCCTGTGTGTTGGTGTTTTCTGTCTTCGGAGTCACCTAGTGCAG”: the binding signal was 3280 fluorescence intensity (a.u.).
Next, “AAGAAAGACGTGCAGTGACAATGATGTCATCATATAGGATCGGAGTCACCTAGTGCAG”: 6680 fluorescence intensity (a.u.).
For the sequence “GATATTAATATTATAGTATACGTGGTTGAGAGGTAACTATCGGAGTCACCTAGTGCAG”, the binding signal is 4840 fluorescence intensity (a.u.).
The result for “GTGGCCACGTGACATTGGCAAGGAGAGGGTAGTGGCCAGTCGGAGTCACCTAGTGCAG” reads 4030 fluorescence intensity (a.u.).
Take “GATAATTTTCCCGCTAGGCGCCACGACGGAACGGGCGCTACGGAGTCACCTAGTGCAG”: the binding signal is 4650 fluorescence intensity (a.u.).
Consider “GGTGGAAGAAGGGAAGGATAGATGATGTCATGTGGACCTCCGGAGTCACCTAGTGCAG”, for which the binding signal was 6380 fluorescence intensity (a.u.).
Next, “AAACTCTCTTCTGCATTGCACAACTAGTCACATCGAGTCACGGAGTCACCTAGTGCAG”: 3620 fluorescence intensity (a.u.).
Next, “ATACTATGTTAATTTGTCTGTGTCCTAATGACGCACCATACGGAGTCACCTAGTGCAG”: 4820 fluorescence intensity (a.u.); “TTATTGGTGGATGCCTCTGAGTCGGATGTGGGTCGTACAACGGAGTCACCTAGTGCAG”: 3660 fluorescence intensity (a.u.); “GCATAGGGTTGCGGGAGATCTAGAGGTTGGAGAACACCGCCGGAGTCACCTAGTGCAG”: 13000 fluorescence intensity (a.u.).
The result for “GCATGGCGATGGTTTGACGAACGTGTCAAACCCCAAATCCCGGAGTCACCTAGTGCAG” reads 3740 fluorescence intensity (a.u.).
For the sequence “AATAATTTATGAATAAAACTTTTATATACGTGTCCTTAGCCGGAGTCACCTAGTGCAG”, the binding signal is 6120 fluorescence intensity (a.u.).
Regarding “CAGAGTGGGCCCACATGTCAGTGACTCAAAGCCATGTGAACGGAGTCACCTAGTGCAG”, the binding signal is 3760 fluorescence intensity (a.u.).
The result for “TCTCCACCTGCGTCCTCGTCATCCTCCCCTAGACAGACAACGGAGTCACCTAGTGCAG” reads 6080 fluorescence intensity (a.u.).
The result for “CCAAAATCAGATATCTTAGGATTCATATCGATGTCCAACACGGAGTCACCTAGTGCAG” reads 19200 fluorescence intensity (a.u.); that for “TGAAATTTGAACCAAGTAATCAACCACGTGTTTGCCCGATCGGAGTCACCTAGTGCAG”, 3840 fluorescence intensity (a.u.).
The result for “TGCTTTGCATCTGCACACGTAGCCCTCTCCCATGAACCTGCGGAGTCACCTAGTGCAG” reads 4520 fluorescence intensity (a.u.).
For the sequence “TTTGATGATGTGGCGCATCCTGGTACCAGAAAGCTTGTTGCGGAGTCACCTAGTGCAG”, the binding signal was 10000 fluorescence intensity (a.u.).
The result for “TCCAAACTTGCCAGACGACCAGGATGACTATCGCATTTCCCGGAGTCACCTAGTGCAG” reads 22000 fluorescence intensity (a.u.); that for “ATTTAGCAGATGAGATGAGTGACATAAGCAGATATCTCCACGGAGTCACCTAGTGCAG”, 15200 fluorescence intensity (a.u.).
Next, “CTAACTACTGACGCAGGCATCTATTTGTTAAATTGCATTCCGGAGTCACCTAGTGCAG”: 4350 fluorescence intensity (a.u.); “GTCTACCTCTTCCAGGACAGGTGGAACCACGTCGTGCGGCCGGAGTCACCTAGTGCAG”: 6510 fluorescence intensity (a.u.).
The result for “GTACGCCACTGGCCACGTAACGTAACGTGCCCGTCCGCTTCGGAGTCACCTAGTGCAG” reads 22500 fluorescence intensity (a.u.).
With “TGGAAGCGAGAGAGAGGGAGGGAGGAGGGAGGCAATTGGTCGGAGTCACCTAGTGCAG”, the binding signal is 3200 fluorescence intensity (a.u.).
On to “GAACCCGATCAGCAGCCGTGCACGTGTCCCATACGCCGTTCGGAGTCACCTAGTGCAG”, for which the binding signal was 5170 fluorescence intensity (a.u.).
Next, “CCTCACACGATCACATTCGTGACTCACTCGAAAGAGAAAGCGGAGTCACCTAGTGCAG”: 3340 fluorescence intensity (a.u.).
The result for “TAGACATCTCAGCGCCACGTTAGCTGGCGCTGAATGCGGTCGGAGTCACCTAGTGCAG” reads 8720 fluorescence intensity (a.u.); that for “CTCTCTCTCTCTCTCTCTCTCTCTCTTGCCATTTAAAAGACGGAGTCACCTAGTGCAG”, 4760 fluorescence intensity (a.u.).
